Measured values from article PMC5397198.
These are yes or no findings as the source states them, for the method shown. Binding seen in cells or lysates may run through a third protein.

Amino acid sequences for entries named in this document (tags omitted).
UniProt O94953: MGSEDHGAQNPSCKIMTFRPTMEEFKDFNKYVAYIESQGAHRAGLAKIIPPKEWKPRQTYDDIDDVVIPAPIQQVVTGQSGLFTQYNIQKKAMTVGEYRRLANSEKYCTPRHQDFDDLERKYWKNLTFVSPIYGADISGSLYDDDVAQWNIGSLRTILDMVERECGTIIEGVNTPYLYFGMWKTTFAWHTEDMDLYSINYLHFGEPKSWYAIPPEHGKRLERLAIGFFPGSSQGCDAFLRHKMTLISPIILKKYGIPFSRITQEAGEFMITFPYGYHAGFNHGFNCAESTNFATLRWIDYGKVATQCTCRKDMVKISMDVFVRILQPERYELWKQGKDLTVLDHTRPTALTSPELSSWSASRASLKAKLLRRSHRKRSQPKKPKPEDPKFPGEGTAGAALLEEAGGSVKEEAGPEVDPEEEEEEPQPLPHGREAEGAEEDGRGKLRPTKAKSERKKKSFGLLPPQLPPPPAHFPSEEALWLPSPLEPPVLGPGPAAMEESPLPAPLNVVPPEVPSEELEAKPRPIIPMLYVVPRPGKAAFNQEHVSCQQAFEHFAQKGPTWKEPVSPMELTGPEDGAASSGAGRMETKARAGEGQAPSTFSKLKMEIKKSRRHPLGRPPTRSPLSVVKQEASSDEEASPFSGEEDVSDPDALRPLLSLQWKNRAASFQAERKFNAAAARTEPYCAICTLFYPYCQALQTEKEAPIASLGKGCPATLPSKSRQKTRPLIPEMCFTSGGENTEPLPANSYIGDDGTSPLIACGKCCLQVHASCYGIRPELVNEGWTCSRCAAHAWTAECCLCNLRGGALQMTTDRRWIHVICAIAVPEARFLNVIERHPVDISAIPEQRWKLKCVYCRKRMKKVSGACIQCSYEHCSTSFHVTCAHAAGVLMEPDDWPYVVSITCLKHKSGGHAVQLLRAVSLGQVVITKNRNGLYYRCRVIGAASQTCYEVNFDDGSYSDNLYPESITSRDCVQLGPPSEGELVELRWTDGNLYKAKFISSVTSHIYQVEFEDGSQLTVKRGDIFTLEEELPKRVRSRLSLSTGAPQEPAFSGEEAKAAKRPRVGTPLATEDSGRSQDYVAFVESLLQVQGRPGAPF

Molecular target: p53 tumor suppressor protein (human (endogenous in HCT116)) (UniProt P04637)
Assay: co-IP; lysates (about 250 ug protein) of HCT116 p53 WT cells treated with doxorubicin or 5-FU; immunoprecipitation with 2 ug anti-p53 DO-1 overnight at 4°C, Protein A/G Dynabeads, normal mouse IgG as control; Western blot for p53 and JMJD2B; lysis buffer 20 mM Tris-HCl pH 7.5, 150 mM NaCl, 1 mM EDTA, 1 mM EGTA, 1% Triton X-100

- binding: no binding
Substance: JMJD2B/KDM4B (histone demethylase 4B, Jumonji domain-containing protein 2B) (from UniProt O94953 1-1096)
